Laboratory results published in publication PMC10351137.
Construct, isoform or probe ends are uncertain for at least one entry. Results from cells or extracts need not show a direct contact. Weaker means in comparison with the reference protein, sequence or condition of that experiment.

Protein sequences, listed by entry. Tags and fused reporters are not part of them. Lines headed by an entry give the natural chain unless they say otherwise; changes in a name come on top.
UniProt P17676: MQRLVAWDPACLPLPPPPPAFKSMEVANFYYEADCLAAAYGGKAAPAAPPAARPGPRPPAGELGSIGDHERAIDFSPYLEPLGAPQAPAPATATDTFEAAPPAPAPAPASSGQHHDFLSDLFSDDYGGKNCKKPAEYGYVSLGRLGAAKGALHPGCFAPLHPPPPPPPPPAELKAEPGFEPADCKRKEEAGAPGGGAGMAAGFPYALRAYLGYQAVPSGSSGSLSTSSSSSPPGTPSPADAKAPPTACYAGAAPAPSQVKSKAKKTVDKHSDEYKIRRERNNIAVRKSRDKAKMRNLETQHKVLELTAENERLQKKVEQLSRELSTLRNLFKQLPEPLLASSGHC
UniProt P31260, whole entry: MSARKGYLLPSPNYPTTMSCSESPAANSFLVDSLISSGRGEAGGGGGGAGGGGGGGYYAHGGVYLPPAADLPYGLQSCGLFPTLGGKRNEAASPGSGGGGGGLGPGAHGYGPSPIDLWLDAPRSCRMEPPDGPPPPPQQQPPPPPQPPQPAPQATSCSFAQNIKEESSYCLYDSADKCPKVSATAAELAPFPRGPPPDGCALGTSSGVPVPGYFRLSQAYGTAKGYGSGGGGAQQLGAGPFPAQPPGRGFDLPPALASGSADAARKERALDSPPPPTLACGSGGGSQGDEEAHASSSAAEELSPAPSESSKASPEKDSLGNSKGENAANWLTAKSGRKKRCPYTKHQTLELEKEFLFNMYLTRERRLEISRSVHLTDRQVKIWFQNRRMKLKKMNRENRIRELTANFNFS

Key:
CEBPB-DDK = CEBPB-DDK (UniProt P17676); test: EMSA, anti-DDK supershift; settings: decidualized hESF nuclear extract; 6 ug nuclear extract plus TF lysate, 50-100 fmol probe, LI-COR binding buffer (composition and pH not given), 1 ug poly(dI-dC), about 2% glycerol; protein in a lysate after overexpression; protein details: DDK; label: 5' IRD700
HOXA10-DDK = HOXA10-DDK (UniProt P31260); test: EMSA, anti-DDK supershift; settings: decidualized hESF nuclear extract; 6 ug nuclear extract plus TF lysate, 50-100 fmol probe, LI-COR binding buffer (composition and pH not given), 1 ug poly(dI-dC), about 2% glycerol; protein in a lysate after overexpression; protein details: DDK; label: 5' IRD700

| Sequence | binding result (CEBPB-DDK) | binding result (HOXA10-DDK) |
| --- | --- | --- |
| AACCCAAAAGCAAATGCAACAAAAACAAAGATAAATAGC (double strand) [rs7889204 C (non-reference, risk) probe] | binds more weakly | binds more weakly |
| AACCCAAAAGCAAATGCAATAAAAACAAAGATAAATAGC (double strand) [rs7889204 T (reference, non-risk) probe] | binds | binds |
